# Where a name gives a salt, the structure may show the parent alone. ± gives the standard deviation of the averaged measurements. Some of the results follow. Most entries show no effect beyond the scatter of the controls.
# Test system: hPSC-derived cortical neurons (WA09)
# Assay: total neurite length per nucleus (MAP2) z-score; higher = more neurite growth
# Conditions: 5 µM; treatment: days 7-14 after plating, readout day 21
row,Structure (SMILES),total neurite length per nucleus (z-score)
1,Cc1nc(NC(=O)N2CCC[C@H]2C(N)=O)sc1-c1ccnc(C(C)(C)C(F)(F)F)c1,-0.27
2,C[N+]1(C)[C@@H]2C[C@@H](OC(=O)C(O)(c3cccs3)c3cccs3)C[C@H]1[C@@H]1O[C@@H]12 [Tiotropium Bromide hydrate],0.414
3,O=C(O)/C=C/c1ccc(Cn2ccnc2)cc1 [Ozagrel],0.0091
4,COc1ccccc1OCC(O)COC(N)=O (configuration not stated) [Methocarbamol],0.0292
5,CN1CCC[C@@H]1Cc1c[nH]c2ccc(CCS(=O)(=O)c3ccccc3)cc12 [Eletriptan HBr],1.3
6,CC[C@H]1OC(=O)[C@H](C)[C@@H](O[C@H]2C[C@@](C)(OC)[C@@H](O)[C@H](C)O2)[C@H](C)[C@@H](O[C@@H]2O[C@H](C)C[C@H](N(C)C)[C@H]2O)[C@](C)(O)C[C@@H](C)CN(C)[C@H](C)[C@@H](O)[C@]1(C)O [Azithromycin],-0.169 ± 0.17
7,Cn1cncc1[C@@](N)(c1ccc(Cl)cc1)c1ccc2c(c1)c(-c1cccc(Cl)c1)cc(=O)n2C [Tipifarnib],-0.661
8,CCCC(=O)Nc1ccc(OCC(O)CNC(C)C)c(C(C)=O)c1 (configuration not stated) [Acebutolol HCl],1.73
9,COC(=O)C1=C(C)NC(C)=C(C(=O)OCCN2CCN(C(c3ccccc3)c3ccccc3)CC2)C1c1cccc([N+](=O)[O-])c1 (configuration not stated) [Manidipine],-1.67
10,COc1cccc(C=NCCN=Cc2cccc(OC)c2[O-])c1[O-].[Cl-].[Mn+3],0.483
11,CC(C)(O)CNc1ncc(-c2ccnc(Nc3ccnc(Cl)c3)n2)c(CC2CC2)n1,-2.42
12,CC(=O)Nc1cccc2c1c(Sc1ccc(Cl)cc1)c(C)n2CC(=O)O,0.256
13,O=S(=O)(c1ccccc1)c1cnc2c(N3CCNCC3)cccc2c1,1.57
14,CNC(=O)c1cc(Oc2ccc(NC(=O)Nc3cc(C(C)(C)C)nn3-c3ccc4ncccc4c3)c(F)c2)ccn1 [DCC-2036 (Rebastinib)],-0.142
15,CC1(C)[C@@H](OC(=O)CCC(=O)O)CC[C@]2(C)[C@H]3C(=O)C=C4[C@@H]5C[C@@](C)(C(=O)O)CC[C@]5(C)CC[C@@]4(C)[C@]3(C)CC[C@@H]12 [Carbenoxolone Sodium],-0.0451
16,C[N+](C)(C)NCCC(=O)[O-] [Mildronate],0.273
17,COc1cc(Nc2nc3ccccc3nc2NS(=O)(=O)c2ccc(NC(=O)c3ccc(C)c(OC)c3)cc2)cc(OC)c1,1.46
18,CC1=C(C(=O)Nc2cc3cn[nH]c3cc2F)C(c2ccc(C(F)(F)F)cc2)CC(=O)N1 (configuration not stated),0.0949
19,C[C@@H](O[C@H]1OCCN(Cc2n[nH]c(=O)[nH]2)[C@H]1c1ccc(F)cc1)c1cc(C(F)(F)F)cc(C(F)(F)F)c1 [Aprepitant],-0.348
20,CN(NC(=O)CC(=O)NN(C)C(=S)c1ccccc1)C(=S)c1ccccc1 [Elesclomol (STA-4783)],1.67
21,O=C(Cc1cccc(OC(F)(F)F)c1)Nc1ccc(CCCCc2nnc(NC(=O)Cc3ccccn3)s2)nn1,0.0552
22,COc1ccc(CC(C)NCC(O)c2ccc(O)c(NC=O)c2)cc1 (configuration not stated) [Formoterol Hemifumarate],-1.61
23,O=C(C1CCCCC1)N1CC(=O)N2CCc3ccccc3C2C1 (configuration not stated) [Praziquantel],1.11
24,COc1ccc(C(=O)NCc2ccc(OCCN(C)C)cc2)cc1OC [Itopride hydrochloride],0.52
25,CN(CCOc1ccc(CC2SC(=O)NC2=O)cc1)c1ccccn1 (configuration not stated) [Rosiglitazone],0.285
26,Cc1cc(F)c(C(=O)Nc2cccc(-c3nncn3C(C)C)n2)cc1-n1cnc(C2CC2)c1 [Selonsertib (GS-4997)],-0.174
27,C[N+](C)(CCOc1ccccc1)Cc1ccccc1.O=C([O-])c1cc2ccccc2cc1O [Bephenium Hydroxynaphthoate],-0.0163

# Retrieved by compound from above (2):
row,Structure (SMILES),total neurite length per nucleus (z-score)
16,C[N+](C)(C)NCCC(=O)[O-] [Mildronate],0.273
15,CC1(C)[C@@H](OC(=O)CCC(=O)O)CC[C@]2(C)[C@H]3C(=O)C=C4[C@@H]5C[C@@](C)(C(=O)O)CC[C@]5(C)CC[C@@]4(C)[C@]3(C)CC[C@@H]12 [Carbenoxolone Sodium],-0.0451
